According to PMC1702558:
These are yes or no findings as the source states them, for the method shown. Binding seen in cells or lysates may run through a third protein. Some binding calls cover weakened binding; strength is not graded here.

Target: T1, CD44 (mouse (endogenous in cultured keratinocytes and DBA/1 epidermis)) (UniProt P15379)
T1 sequence: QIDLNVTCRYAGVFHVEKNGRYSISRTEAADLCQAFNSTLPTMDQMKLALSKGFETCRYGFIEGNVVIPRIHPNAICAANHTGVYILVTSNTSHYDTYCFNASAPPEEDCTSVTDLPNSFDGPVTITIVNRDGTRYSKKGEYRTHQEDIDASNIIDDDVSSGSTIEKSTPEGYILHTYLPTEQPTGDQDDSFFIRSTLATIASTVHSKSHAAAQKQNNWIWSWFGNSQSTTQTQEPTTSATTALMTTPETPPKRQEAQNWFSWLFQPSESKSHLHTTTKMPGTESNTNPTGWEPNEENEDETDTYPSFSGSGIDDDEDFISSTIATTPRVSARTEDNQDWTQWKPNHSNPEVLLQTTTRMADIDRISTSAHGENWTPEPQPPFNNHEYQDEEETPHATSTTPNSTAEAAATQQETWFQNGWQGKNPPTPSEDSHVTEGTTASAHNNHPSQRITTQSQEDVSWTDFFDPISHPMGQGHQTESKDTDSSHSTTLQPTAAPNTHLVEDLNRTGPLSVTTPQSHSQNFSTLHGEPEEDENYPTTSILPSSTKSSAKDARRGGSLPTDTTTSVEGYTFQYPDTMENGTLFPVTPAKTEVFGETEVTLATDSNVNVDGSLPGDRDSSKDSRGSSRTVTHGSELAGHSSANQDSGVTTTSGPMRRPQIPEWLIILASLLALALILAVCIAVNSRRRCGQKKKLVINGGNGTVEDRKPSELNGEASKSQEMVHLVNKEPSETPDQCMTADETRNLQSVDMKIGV
Experiment: co-IP; anti-CD44 antibodies with protein A+G agarose beads, overnight at 4 °C, in the presence of BSA and rat IgG; lysates of cultured keratinocytes and of epidermis of DBA/1 mouse skin; Western blot with anti-erbB1; mock: isotype-matched rat IgG

binding: binds
Substance: erbB1 (from UniProt Q01279 25-1210) (receptor)
